According to the supplement of paper PMC11732987, “Enantioselective OTUD7B fragment discovery through chemoproteomics screening and high-throughput optimisation” (Communications Chemistry, 2025):
This is one part of the list. The data scatter; read single values as rough.

Protein sequences, listed by entry. Tags and fused reporters are not part of them. Lines headed by an entry give the natural chain unless they say otherwise; changes in a name come on top. Residues count along the entry.
UniProt Q5T4S7, 3380-3401: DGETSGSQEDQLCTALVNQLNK
UniProt Q9Y4A5, 2104-2124: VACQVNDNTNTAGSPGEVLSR
UniProt Q9Y4A5, whole entry, looked up: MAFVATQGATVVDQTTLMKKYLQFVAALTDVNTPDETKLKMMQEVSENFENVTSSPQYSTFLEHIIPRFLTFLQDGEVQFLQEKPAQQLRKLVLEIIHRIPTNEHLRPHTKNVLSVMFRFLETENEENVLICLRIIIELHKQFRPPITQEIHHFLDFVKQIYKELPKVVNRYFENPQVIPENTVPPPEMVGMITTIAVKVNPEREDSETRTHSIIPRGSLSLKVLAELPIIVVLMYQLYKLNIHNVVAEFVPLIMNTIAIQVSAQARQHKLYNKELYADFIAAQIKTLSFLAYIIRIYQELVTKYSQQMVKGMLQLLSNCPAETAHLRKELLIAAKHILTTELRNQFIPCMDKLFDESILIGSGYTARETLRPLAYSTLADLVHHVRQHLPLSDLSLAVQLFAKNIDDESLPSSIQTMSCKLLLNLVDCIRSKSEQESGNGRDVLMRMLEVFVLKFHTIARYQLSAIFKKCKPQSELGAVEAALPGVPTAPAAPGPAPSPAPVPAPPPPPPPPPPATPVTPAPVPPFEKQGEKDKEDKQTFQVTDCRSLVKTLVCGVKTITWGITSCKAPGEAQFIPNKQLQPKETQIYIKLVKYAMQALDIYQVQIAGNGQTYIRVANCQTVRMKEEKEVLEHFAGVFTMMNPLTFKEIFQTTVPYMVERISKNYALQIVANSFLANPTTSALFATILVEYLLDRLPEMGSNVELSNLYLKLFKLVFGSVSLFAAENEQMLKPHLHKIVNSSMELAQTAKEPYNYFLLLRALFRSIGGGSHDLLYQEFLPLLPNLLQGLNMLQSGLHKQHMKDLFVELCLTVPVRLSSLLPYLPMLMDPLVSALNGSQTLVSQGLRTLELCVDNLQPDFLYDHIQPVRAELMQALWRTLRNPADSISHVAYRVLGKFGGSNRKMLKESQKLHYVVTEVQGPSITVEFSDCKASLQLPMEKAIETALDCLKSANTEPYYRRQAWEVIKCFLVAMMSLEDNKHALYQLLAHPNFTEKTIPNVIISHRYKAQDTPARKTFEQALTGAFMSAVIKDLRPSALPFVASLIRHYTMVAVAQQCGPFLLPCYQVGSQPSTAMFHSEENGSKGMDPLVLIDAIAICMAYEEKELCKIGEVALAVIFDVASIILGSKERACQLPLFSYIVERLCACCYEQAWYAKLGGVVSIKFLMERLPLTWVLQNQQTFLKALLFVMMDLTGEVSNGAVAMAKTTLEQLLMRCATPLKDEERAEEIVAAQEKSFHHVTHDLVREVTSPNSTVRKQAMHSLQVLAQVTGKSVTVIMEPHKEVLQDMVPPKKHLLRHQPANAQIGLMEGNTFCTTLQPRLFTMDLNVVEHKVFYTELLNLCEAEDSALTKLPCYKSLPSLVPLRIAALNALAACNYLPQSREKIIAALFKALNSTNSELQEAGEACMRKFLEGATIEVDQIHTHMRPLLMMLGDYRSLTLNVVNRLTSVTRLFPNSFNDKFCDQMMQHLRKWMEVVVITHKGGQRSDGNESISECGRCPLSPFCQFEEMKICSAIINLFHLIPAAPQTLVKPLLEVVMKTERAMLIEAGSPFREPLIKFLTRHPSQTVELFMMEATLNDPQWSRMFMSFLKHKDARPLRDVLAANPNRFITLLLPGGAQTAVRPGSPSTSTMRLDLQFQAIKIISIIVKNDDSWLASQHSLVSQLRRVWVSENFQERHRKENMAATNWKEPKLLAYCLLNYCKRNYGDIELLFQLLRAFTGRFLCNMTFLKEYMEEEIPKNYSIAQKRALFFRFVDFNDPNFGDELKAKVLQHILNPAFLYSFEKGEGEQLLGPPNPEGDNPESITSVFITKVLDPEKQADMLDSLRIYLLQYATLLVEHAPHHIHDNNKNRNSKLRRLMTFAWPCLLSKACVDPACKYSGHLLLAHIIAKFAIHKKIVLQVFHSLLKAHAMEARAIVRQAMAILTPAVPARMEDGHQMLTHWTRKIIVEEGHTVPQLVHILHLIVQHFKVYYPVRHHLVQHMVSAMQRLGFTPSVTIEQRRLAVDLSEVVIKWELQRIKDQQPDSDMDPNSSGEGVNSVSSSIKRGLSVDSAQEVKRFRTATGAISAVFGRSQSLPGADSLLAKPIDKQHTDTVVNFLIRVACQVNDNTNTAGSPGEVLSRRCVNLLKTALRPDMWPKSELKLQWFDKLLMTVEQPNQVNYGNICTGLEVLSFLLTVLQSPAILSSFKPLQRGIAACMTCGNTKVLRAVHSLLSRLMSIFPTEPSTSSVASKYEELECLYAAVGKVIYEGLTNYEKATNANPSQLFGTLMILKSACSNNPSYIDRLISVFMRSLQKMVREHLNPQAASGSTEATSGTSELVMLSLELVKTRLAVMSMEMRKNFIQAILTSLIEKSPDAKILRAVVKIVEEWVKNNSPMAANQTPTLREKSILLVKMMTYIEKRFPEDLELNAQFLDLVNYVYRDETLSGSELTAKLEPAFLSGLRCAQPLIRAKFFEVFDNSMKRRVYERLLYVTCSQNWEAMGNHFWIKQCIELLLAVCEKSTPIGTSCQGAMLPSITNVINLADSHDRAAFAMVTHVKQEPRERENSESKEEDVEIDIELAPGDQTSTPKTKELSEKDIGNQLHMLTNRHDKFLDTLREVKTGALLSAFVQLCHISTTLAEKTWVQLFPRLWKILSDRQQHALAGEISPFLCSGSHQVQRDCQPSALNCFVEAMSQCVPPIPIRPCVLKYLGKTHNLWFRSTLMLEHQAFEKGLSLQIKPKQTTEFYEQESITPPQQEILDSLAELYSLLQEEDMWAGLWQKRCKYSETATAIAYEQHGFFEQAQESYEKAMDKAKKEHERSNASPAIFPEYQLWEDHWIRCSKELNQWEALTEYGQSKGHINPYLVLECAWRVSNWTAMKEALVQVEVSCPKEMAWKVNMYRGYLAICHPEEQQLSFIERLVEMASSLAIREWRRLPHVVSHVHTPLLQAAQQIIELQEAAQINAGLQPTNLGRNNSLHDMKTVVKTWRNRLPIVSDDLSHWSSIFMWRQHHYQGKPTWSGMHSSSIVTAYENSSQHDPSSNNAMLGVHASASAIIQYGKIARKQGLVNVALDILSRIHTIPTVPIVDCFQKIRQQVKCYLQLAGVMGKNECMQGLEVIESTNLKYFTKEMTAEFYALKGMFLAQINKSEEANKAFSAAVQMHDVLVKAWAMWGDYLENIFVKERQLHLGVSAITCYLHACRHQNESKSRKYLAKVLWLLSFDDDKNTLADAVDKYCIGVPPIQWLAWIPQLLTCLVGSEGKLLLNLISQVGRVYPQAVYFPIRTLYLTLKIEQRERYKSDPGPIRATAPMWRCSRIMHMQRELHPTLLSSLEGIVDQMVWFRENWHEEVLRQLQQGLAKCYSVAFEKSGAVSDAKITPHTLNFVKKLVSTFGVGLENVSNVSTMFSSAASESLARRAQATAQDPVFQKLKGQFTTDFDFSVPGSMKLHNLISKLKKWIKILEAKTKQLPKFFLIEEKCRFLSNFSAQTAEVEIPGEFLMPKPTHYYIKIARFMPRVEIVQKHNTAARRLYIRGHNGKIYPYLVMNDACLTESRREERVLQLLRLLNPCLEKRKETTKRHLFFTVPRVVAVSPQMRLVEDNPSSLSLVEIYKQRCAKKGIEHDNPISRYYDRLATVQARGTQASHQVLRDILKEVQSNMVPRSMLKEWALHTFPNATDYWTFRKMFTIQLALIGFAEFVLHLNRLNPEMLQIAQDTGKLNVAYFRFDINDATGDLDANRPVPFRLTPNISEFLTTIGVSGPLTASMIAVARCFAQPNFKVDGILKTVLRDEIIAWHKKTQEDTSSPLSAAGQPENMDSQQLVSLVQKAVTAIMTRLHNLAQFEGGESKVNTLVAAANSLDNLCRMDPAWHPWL
UniProt Q5TAX3: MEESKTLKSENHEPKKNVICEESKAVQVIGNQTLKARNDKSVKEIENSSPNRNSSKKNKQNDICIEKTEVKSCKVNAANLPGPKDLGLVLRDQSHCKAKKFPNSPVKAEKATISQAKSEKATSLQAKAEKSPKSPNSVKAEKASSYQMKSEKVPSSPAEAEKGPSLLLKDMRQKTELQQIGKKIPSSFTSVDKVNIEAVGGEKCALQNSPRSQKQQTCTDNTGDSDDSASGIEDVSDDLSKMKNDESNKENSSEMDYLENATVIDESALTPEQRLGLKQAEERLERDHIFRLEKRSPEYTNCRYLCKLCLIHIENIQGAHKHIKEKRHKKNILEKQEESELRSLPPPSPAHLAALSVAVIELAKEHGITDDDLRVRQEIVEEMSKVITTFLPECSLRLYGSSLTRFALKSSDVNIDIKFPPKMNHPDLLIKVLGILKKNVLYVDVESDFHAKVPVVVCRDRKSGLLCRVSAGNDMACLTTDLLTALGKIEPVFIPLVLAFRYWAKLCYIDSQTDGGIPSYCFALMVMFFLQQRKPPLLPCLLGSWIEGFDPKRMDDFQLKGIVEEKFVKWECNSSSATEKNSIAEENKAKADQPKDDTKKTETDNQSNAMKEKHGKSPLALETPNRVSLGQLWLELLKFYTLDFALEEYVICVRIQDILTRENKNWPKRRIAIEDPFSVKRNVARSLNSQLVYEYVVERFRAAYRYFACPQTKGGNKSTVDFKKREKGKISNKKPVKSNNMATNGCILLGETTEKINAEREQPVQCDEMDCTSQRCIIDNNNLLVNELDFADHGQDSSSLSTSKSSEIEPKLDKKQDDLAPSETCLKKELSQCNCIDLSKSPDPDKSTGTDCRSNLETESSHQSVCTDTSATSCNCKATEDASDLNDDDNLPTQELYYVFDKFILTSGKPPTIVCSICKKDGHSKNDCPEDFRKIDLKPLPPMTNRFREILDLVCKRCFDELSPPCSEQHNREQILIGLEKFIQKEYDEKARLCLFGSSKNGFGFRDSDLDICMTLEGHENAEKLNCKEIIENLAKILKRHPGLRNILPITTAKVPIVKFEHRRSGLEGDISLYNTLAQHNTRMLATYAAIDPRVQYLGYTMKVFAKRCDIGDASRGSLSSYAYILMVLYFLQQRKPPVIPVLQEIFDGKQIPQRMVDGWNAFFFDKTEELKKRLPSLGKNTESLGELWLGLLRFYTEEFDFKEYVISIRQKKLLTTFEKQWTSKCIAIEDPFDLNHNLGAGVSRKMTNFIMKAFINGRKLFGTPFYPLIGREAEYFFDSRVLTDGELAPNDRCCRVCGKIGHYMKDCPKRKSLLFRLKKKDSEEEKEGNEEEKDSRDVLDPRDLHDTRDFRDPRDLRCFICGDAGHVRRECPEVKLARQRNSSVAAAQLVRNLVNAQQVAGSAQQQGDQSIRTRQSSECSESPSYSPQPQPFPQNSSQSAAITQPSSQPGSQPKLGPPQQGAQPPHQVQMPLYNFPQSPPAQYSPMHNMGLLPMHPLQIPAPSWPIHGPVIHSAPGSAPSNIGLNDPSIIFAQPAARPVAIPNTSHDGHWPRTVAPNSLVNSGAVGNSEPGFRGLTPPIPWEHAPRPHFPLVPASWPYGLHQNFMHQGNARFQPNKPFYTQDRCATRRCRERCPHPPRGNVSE
UniProt O14530: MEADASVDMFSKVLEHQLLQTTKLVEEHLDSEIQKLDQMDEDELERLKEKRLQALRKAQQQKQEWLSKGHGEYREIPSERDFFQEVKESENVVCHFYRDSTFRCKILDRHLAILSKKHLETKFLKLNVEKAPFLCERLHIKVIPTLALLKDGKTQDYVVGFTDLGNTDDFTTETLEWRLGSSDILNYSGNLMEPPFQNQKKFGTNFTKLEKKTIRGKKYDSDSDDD
UniProt Q9NUQ3: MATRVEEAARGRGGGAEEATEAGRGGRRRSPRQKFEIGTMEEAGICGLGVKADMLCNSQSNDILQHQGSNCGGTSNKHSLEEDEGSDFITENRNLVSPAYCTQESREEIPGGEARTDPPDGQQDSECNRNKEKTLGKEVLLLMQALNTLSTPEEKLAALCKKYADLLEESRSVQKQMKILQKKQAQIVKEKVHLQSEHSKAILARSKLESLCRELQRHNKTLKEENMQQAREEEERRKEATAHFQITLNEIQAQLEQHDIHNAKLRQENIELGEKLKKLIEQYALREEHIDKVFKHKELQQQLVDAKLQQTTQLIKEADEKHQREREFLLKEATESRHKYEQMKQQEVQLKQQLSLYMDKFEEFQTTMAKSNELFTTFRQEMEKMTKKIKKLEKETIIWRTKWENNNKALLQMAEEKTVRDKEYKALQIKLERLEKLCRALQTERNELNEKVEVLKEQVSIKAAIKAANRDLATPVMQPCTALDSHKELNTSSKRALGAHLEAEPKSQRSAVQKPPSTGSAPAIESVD
UniProt Q8IWV7, 855-877: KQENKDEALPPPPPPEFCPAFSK
UniProt Q712K3: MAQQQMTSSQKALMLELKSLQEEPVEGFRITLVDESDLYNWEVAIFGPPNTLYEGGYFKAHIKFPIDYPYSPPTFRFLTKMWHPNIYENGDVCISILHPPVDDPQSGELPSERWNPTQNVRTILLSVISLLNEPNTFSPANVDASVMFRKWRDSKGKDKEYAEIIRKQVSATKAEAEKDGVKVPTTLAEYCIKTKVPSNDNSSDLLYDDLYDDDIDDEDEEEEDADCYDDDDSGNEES
UniProt Q9UHF7, 160-185: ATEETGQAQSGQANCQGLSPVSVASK

What was measured:
[1] = compound: ClCC(=O)N[C@@H]1CCCc2ccccc12; assay: log2 mean competition ratio of IA-DTB cysteine labelling (DMSO/compound) (log2 ratio); higher = stronger cysteine engagement by compound; details: treatment time: 4 h, cell line lysate: HEK293T
Description: (§1)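 IA-DTB competitive cysteine chemoproteomics in HEK293T RIPA lysate. Lysates were treated with compound 29 or 30 at 50 or 200 µM for 4 h, then IA-DTB (500 µM, 1 h), trypsin-digested, NeutrAvidin-enriched and analysed by diaPASEF. Competition ratio = intensity DMSO / intensity compound (n=4 treated, n=64 DMSO); binding: mean log2 CR ≥ 1 and p ≤ 0.05 plus QC filters. Target is the cysteine site.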

[2] = compound: ClCC(=O)N[C@H]1CCCc2ccccc12; assay: as above; details: treatment time: 4 h, cell line lysate: HEK293T
Description: as §1

Target	log2 mean competition ratio ([1]; 50 µM)	log2 mean competition ratio ([1]; 200 µM)	log2 mean competition ratio ([2]; 50 µM)	log2 mean competition ratio ([2]; 200 µM)
TUT7 C800 (UniProt Q5VYS8)	0.0448	0.0144	-0.133	0.102
UBR4 C3392 (UniProt Q5T4S7)	-0.461	-0.0585	-0.0996	-0.0544
UBE3A C108 (UniProt Q05086)	-0.0542	-0.0169	-0.117	-0.0275
TSC1 C822 (UniProt Q92574)	0.582	0.299	0.102	0.0353
TUBB3 C354 (UniProt Q13509)	-0.0143	-0.157	-0.164	0.237
TTC39C C517 (UniProt Q8N584)	0.0406	0.0856	-0.0716	0.0665
TRRAP C420 (UniProt Q9Y4A5)	0.37	0.0482	0.94	0.215
TRMU C101 (UniProt O75648)	-0.138	-0.0795	-0.482	0.183
UBE2E3;UBE2E2 C81;(C75)	-0.46	-0.3	0.067	-0.172
UBE2O C314	0.196	-0.0978	0.781	-0.00736
UBE4A C202 (UniProt Q14139)	0.00446	-0.308	0.00286	-0.111
UBR3 C288 (UniProt Q6ZT12)	0.118	0.139	0.131	0.0252
UBN1 C711 (UniProt Q9NPG3)	-0.0926	-0.0895	-0.0918	-0.0702
UBE3C C158 (UniProt Q15386)	-0.181	0.111	0.392	0.162
TRRAP C2106 (UniProt Q9Y4A5)	0.0508	0.0336	0.0834	-0.0531
UBE4B C113 (UniProt O95155)	-0.178	-0.0861	-0.263	0.0766
TTLL12 C370	-0.00309	-0.161	-0.051	-0.144
TSC2 C52 (UniProt P49815)	-0.0357	0.175	-0.318	0.0182
TUT4 C709 (UniProt Q5TAX3)	-0.0889	-0.148	0.325	-0.0363
TTC39C C97 (UniProt Q8N584)	-0.304	-0.287	0.462	-0.045
UBE2O C598	-0.0208	-0.153	-0.378	-0.0738
TUBB4B C354 (UniProt P68371)	0.394	-0.103	0.138	0.153
TTC37 C1349 (UniProt Q6PGP7)	-0.156	-0.0392	-0.0591	0.0739
TRMT10C C123 (UniProt Q7L0Y3)	-0.0845	-0.175	-0.423	-0.142
TUT7 C690 (UniProt Q5VYS8)	0.117	0.0545	-0.062	0.272

Target	log2 mean competition ratio ([1]; 50 µM)	log2 mean competition ratio ([1]; 200 µM)	log2 mean competition ratio ([2]; 50 µM)	log2 mean competition ratio ([2]; 200 µM)
TXNDC9 C135 (UniProt O14530)	-0.072	-0.114	-0.00895	-0.0844
TXLNG C127 (UniProt Q9NUQ3)	0.177	0.111	-0.0416	0.23
TUT7 C417 (UniProt Q5VYS8)	0.0742	0.209	-0.203	0.28
UBE3A C83 (UniProt Q05086)	0.18	-0.165	0.212	-0.189
TTC38 C53 (UniProt Q5R3I4)	-0.000362	-0.24	-0.105	-0.261
TTMP C119 (UniProt Q5BVD1)	0.0126	0.105	-0.213	-0.247
TRRAP C1408 (UniProt Q9Y4A5)	0.128	-0.254	0.483	-0.158
TSEN2 C265 (UniProt Q8NCE0)	0.378	-0.0976	0.213	-0.138
UBFD1 C33 (UniProt O14562)	-0.507	-0.213	0.156	-0.356
UBA2 C173	-0.103	-0.254	1.09	0.0826
UBE2G1 C90 (UniProt P62253)	0.262	-0.0827	-0.321	-0.177
TTC30A C93	0.0088	-0.336	0.526	-0.0255
TSPAN6 C183 (UniProt O43657)	-0.133	-0.17	-0.184	0.195
UBR1 C251 (UniProt Q8IWV7)	-0.451	-0.145	-0.424	0.0768
UBR1 C477 (UniProt Q8IWV7)	-0.122	-0.46	0.0706	-0.343
TUT4 C1109 (UniProt Q5TAX3)	-0.227	0.189	-0.047	0.468
TXNDC9 C94 (UniProt O14530)	0.0999	-0.0793	-0.275	-0.108
TSPAN2 C164	-0.159	-0.0842	-0.369	0.26
TTC37 C715 (UniProt Q6PGP7)	0.00139	0.0553	-0.0583	0.113
TUBGCP3 C762 (UniProt Q96CW5)	0.295	0.0594	0.0968	-0.156
TRRAP C3098 (UniProt Q9Y4A5)	0.317	-0.0704	-0.176	-0.172
TXNRD2 C168 (UniProt Q9NNW7)	-0.0201	0.0193	-0.325	-0.195
TTLL12 C612	0.224	-0.278	0.942	-0.186
TTLL4 C829 (UniProt Q14679)	-0.00487	0.102	0.102	0.0524
TSPAN14 C200 (UniProt Q8NG11)	0.0941	0.11	-0.38	-0.0185

Exported in CSV form: part of the list above
Target,log2 mean competition ratio ([1]; 50 µM),log2 mean competition ratio ([1]; 200 µM),log2 mean competition ratio ([2]; 50 µM),log2 mean competition ratio ([2]; 200 µM)
TRRAP C1408 (UniProt Q9Y4A5),0.128,-0.254,0.483,-0.158
TSEN2 C265 (UniProt Q8NCE0),0.378,-0.0976,0.213,-0.138
UBFD1 C33 (UniProt O14562),-0.507,-0.213,0.156,-0.356
UBA2 C173,-0.103,-0.254,1.09,0.0826

Further results follow:

Target	log2 mean competition ratio ([1]; 50 µM)	log2 mean competition ratio ([1]; 200 µM)	log2 mean competition ratio ([2]; 50 µM)	log2 mean competition ratio ([2]; 200 µM)
TTC30A C454	0.129	0.0125	-0.365	-0.108
TRRAP C2449 (UniProt Q9Y4A5)	0.019	0.0211	0.461	0.131
TSEN34 C291 (UniProt Q9BSV6)	-0.0777	-0.131	0.0835	0.0218
UBE2O C101	-0.0513	0.17	-0.114	-0.089
TRMT13 C185 (UniProt Q9NUP7)	0.144	0.0915	-0.000983	-0.073
TSFM C71 (UniProt P43897)	-0.383	-0.181	-0.16	-0.0311
TXLNG C101 (UniProt Q9NUQ3)	0.0129	-0.119	0.0851	0.0316
TTC4 C174 (UniProt O95801)	0.321	0.175	0.282	0.143
TUFT1 C267 (UniProt Q9NNX1)	-0.288	-0.114	0.0162	-0.135
UBR4 C2234 (UniProt Q5T4S7)	-0.365	-0.0889	0.0365	-0.141
UBR1 C180 (UniProt Q8IWV7)	-0.362	0.278	-0.321	0.157
TTC27 C188 (UniProt Q6P3X3)	0.364	0.104	-0.0234	0.152
TUBGCP3 C388 (UniProt Q96CW5)	-0.139	0.0965	-0.0652	-0.0272
TTC7A C199 (UniProt Q9ULT0)	-0.203	0.0808	-0.0543	-0.0668
UBR1 C872 (UniProt Q8IWV7)	0.0248	0.143	-0.273	0.414
TUBB8B C12 (UniProt A6NNZ2)	0.348	-0.0718	-0.164	-0.0883
TUFM C127 (UniProt P49411)	0.409	-0.177	0.45	-0.293
TUT7 C343 (UniProt Q5VYS8)	0.042	0.106	0.424	0.347
TRRAP C2241 (UniProt Q9Y4A5)	-0.111	-0.543	0.184	-0.675
TSPYL1 C160 (UniProt Q9H0U9)	0.0264	-0.0236	0.044	-0.0846
TSHZ1 C363	-0.048	-0.358	0.206	-0.646
TTI2 C484 (UniProt Q6NXR4)	-0.0532	0.205	-0.0307	0.148
TTLL12 C98	-0.151	-0.0629	-0.189	-0.0505
UBE2R2 C191 (UniProt Q712K3)	0.0215	-0.106	-0.353	-0.167
TUBD1 C46 (UniProt Q9UJT1)	-0.122	0.0344	-0.0324	0.11

Rewritten bar-delimited: entries from further up.
Target | log2 mean competition ratio ([1]; 50 µM) | log2 mean competition ratio ([1]; 200 µM) | log2 mean competition ratio ([2]; 50 µM) | log2 mean competition ratio ([2]; 200 µM)
TTC30A C454 | 0.129 | 0.0125 | -0.365 | -0.108
TRRAP C2449 (UniProt Q9Y4A5) | 0.019 | 0.0211 | 0.461 | 0.131

Continued.

Target	log2 mean competition ratio ([1]; 50 µM)	log2 mean competition ratio ([1]; 200 µM)	log2 mean competition ratio ([2]; 50 µM)	log2 mean competition ratio ([2]; 200 µM)
UBN1 C548 (UniProt Q9NPG3)	-0.0428	-0.162	-0.138	-0.0197
U2SURP C918 (UniProt O15042)	-0.152	0.165	-0.184	-0.161
TXNDC16 C821 (UniProt Q9P2K2)	-0.0721	-0.0179	-0.0381	0.00863
TTI1 C351 (UniProt O43156)	-0.29	0.0887	-0.0164	-0.0758
TUBGCP6 C529 (UniProt Q96RT7)	0.197	0.047	-0.0721	0.0675
TTK C229 (UniProt P33981)	-0.0814	0.283	-0.0524	0.259
TTC31 C197	-0.245	-0.365	-0.677	0.152
TTI2 C339 (UniProt Q6NXR4)	0.0438	-0.0036	-0.103	-0.292
TTF2 C1118 (UniProt Q9UNY4)	0.00497	0.153	-0.492	0.181
UBL4A C13 (UniProt P11441)	-0.126	-0.0353	-0.263	-0.114
TTC37 C305 (UniProt Q6PGP7)	0.323	-0.0727	0.285	-0.214
UACA C994 (UniProt Q9BZF9)	0.0602	-0.2	-0.108	-0.0434
TUT4 C825 (UniProt Q5TAX3)	-0.28	0.101	0.134	0.126
TSR3 C208 (UniProt Q9UJK0)	-0.268	-0.154	-0.353	-0.0624
TSC1 C259 (UniProt Q92574)	-0.264	0.129	-0.323	0.0138
TRPS1 C174 (UniProt Q9UHF7)	-0.207	-0.468	-0.0263	-0.289
TRNT1 C373 (UniProt Q96Q11)	0.291	0.678	0.42	0.716
UBR4 C104 (UniProt Q5T4S7)	-0.166	0.0736	-0.303	0.0286
TTLL12 C528	-0.585	-0.31	-0.284	-0.2
TTF1 C708 (UniProt Q15361)	-0.323	0.143	-0.363	0.387
TRMT2A C463 (UniProt Q8IZ69)	0.241	0.027	0.186	-0.0736
UBE2M C47	-0.126	-0.357	-0.29	-0.207
UBQLN4 C29 (UniProt Q9NRR5)	-0.233	0.194	0.259	0.305
